# PubChem BioAssay AID1224830 | NIAID, 2016
# Aim: 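Genes whose knock-down alters the TNF-alpha reporter response to LPS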 (primary screen)
# Cells: human THP-1 monocytic leukaemia cells, TNF dual-luciferase reporter clone, PMA-differentiated to macrophage-like cells
# Reagents: siRNA pool against human genes, 50 nM
# Time to read-out: LPS for 4 h, given about 3 days after siRNA transfection
# Treatment: bacterial LPS (TLR4 ligand), 10 ng/ml
# Read-out: 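Ratio of firefly to renilla light, scaled to the plate median and expressed as a robust z-score per replicate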
# Reading the numbers: TNF reporter robust z-score: higher = stronger TNF reporter response to LPS
# Rule for the call: 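Each well counts as active if its z-score is over 2.8 or under -1.5; controls are left without a call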
# The whole screen tested about 18,000 reagents; this is a part drawn at random. In the full data, about 2,900 (16%) got an active call. 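Calls are made per well; low scores hint the gene aids the LPS response, high scores that it dampens it.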 Repeated entries: four replicate wells of each siRNA pool.
target gene,PubChem SID,TNF reporter robust z-score,call
SCNN1A,SID315451319,-1.28,inactive
SCNN1A,SID315451319,-0.61,inactive
SCNN1A,SID315451319,-1.6,active
SCNN1A,SID315451319,0.04,inactive
RIBC2,SID315455692,-0.11,inactive
RIBC2,SID315455692,0.98,inactive
RIBC2,SID315455692,-0.09,inactive
RIBC2,SID315455692,0.88,inactive
TMEM42,SID315461902,-1.05,inactive
TMEM42,SID315461902,-1.3,inactive
TMEM42,SID315461902,-1.32,inactive
TMEM42,SID315461902,-0.85,inactive
SETD1A,SID315453525,-0.55,inactive
SETD1A,SID315453525,0.21,inactive
SETD1A,SID315453525,1.8,inactive
SETD1A,SID315453525,0.79,inactive
PSPHP1,SID315452815,-0.74,inactive
PSPHP1,SID315452815,-0.7,inactive
PSPHP1,SID315452815,-0.08,inactive
PSPHP1,SID315452815,0.24,inactive
ADAR,SID315447182,0.82,inactive
ADAR,SID315447182,-0.31,inactive
ADAR,SID315447182,1.52,inactive
ADAR,SID315447182,-0.08,inactive

In a second layout: results already given
target gene | PubChem SID | TNF reporter robust z-score | call
SETD1A | SID315453525 | -0.55 | inactive
SETD1A | SID315453525 | 0.21 | inactive
SETD1A | SID315453525 | 1.8 | inactive
SETD1A | SID315453525 | 0.79 | inactive
PSPHP1 | SID315452815 | -0.74 | inactive
PSPHP1 | SID315452815 | -0.7 | inactive

The list goes on:
target gene,PubChem SID,TNF reporter robust z-score,call
CHRNB4,SID315447933,0.71,inactive
CHRNB4,SID315447933,-0.94,inactive
CHRNB4,SID315447933,-1.1,inactive
CHRNB4,SID315447933,-0.63,inactive
GNAI2,SID315448940,-1.73,active
GNAI2,SID315448940,-1.05,inactive
GNAI2,SID315448940,0.83,inactive
GNAI2,SID315448940,1.65,inactive
GAST,SID315448771,1.13,inactive
GAST,SID315448771,0.38,inactive
GAST,SID315448771,0.47,inactive
GAST,SID315448771,0.41,inactive
B3GAT2,SID315461986,-0.47,inactive
B3GAT2,SID315461986,0.1,inactive
B3GAT2,SID315461986,-0.82,inactive
B3GAT2,SID315461986,-0.14,inactive
PRDX6,SID315453406,-0.57,inactive
PRDX6,SID315453406,1.29,inactive
PRDX6,SID315453406,7.71,active
PRDX6,SID315453406,0.23,inactive
CSMD2,SID315461235,-0.38,inactive
CSMD2,SID315461235,0.01,inactive
CSMD2,SID315461235,-0.24,inactive
CSMD2,SID315461235,0.49,inactive
